Reference: publication PMC8575775, “Structural basis of the interaction between SETD2 methyltransferase and hnRNP L paralogs for governing co-transcriptional splicing” (Nature Communications, 2021)
Changes are numbered by the printed parent chain. These are yes or no findings as the source states them, for the method shown. In cells and extracts the contact can be indirect. A yes stands for co-enrichment or nearness to the bait. Other partners may have been found. For part of these data: A no says only that the protein was not detected with the bait. One block for each binder: values may come before it.

Columns and labels:
Test in all cases: affinity purification with mass spectrometry; Halo-tagged bait expressed in 293T cells, Halo affinity purification from extracts, MudPIT; for SETD2C also from extracts of cells depleted of hnRNP L
[1] = molecular target: T1, Halo-SETD2C L2188A L2189A (human) (UniProt Q9BYW2)
T1 sequence: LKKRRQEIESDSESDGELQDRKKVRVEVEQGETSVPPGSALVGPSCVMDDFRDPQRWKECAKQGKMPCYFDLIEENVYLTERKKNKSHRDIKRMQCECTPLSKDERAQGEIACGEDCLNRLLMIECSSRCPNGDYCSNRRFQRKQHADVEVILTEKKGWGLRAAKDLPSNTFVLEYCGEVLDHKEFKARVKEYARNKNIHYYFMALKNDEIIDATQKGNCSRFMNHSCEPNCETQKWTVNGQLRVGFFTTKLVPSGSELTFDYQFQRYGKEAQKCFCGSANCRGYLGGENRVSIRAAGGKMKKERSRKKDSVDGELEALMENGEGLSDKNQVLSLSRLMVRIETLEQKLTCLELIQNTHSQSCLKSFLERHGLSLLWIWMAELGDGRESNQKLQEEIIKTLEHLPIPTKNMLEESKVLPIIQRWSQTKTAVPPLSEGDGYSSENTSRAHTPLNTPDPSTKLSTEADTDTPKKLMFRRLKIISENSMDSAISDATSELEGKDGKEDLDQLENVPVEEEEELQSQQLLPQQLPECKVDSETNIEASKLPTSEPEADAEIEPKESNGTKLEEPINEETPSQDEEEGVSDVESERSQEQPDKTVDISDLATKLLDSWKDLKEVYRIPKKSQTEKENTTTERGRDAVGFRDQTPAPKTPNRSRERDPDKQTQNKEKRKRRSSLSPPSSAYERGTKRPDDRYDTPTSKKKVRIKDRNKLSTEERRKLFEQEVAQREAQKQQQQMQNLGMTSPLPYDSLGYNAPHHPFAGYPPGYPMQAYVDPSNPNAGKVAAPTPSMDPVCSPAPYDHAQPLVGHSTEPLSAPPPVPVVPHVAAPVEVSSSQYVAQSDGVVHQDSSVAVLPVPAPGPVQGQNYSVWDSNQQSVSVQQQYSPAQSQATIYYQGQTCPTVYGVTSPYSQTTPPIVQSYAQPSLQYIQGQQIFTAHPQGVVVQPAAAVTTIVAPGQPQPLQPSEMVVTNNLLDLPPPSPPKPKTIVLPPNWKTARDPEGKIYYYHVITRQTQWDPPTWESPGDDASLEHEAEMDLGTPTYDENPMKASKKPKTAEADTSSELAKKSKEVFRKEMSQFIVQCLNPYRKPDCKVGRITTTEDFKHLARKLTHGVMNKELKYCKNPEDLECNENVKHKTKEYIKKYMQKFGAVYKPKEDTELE

[2] = molecular target: T2, Halo-SETD2C (1404–2564) (human) (UniProt Q9BYW2)
T2 sequence: T1 sequence with A785L, A786L

[3] = molecular target: T3, Halo-ySet2 (yeast) (UniProt P46995)
T3 sequence: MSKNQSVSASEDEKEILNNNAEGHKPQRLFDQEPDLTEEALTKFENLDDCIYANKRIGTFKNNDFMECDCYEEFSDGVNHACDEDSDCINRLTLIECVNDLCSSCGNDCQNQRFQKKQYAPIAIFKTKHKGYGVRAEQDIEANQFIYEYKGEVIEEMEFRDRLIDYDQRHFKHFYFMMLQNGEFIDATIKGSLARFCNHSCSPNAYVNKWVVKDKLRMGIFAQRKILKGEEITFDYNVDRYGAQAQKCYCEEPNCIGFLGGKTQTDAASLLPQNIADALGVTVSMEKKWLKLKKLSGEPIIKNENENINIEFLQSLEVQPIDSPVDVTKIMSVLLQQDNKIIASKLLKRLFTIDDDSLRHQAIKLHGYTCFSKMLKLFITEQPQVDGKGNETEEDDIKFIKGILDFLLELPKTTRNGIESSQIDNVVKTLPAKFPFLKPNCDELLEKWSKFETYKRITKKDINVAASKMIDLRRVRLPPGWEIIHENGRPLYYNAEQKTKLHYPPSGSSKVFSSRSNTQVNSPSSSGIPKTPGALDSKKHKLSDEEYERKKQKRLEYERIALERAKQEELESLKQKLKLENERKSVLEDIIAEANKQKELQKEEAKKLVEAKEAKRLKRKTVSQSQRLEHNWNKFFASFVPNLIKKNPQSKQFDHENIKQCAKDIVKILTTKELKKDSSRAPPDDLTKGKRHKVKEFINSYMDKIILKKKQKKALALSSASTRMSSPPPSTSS

binding [1]: no binding | binding [2]: binds
B1: hnRNP L (endogenous) (protein, UniProt P14866 1-589)
chain: MSRRLLPRAEKRRRRLEQRQQPDEQRRRSGAMVKMAAAGGGGGGGRYYGGGSEGGRAPKRLKTDNAGDQHGGGGGGGGGAGAAGGGGGGENYDDPHKTPASPVVHIRGLIDGVVEADLVEALQEFGPISYVVVMPKKRQALVEFEDVLGACNAVNYAADNQIYIAGHPAFVNYSTSQKISRPGDSDDSRSVNSVLLFTILNPIYSITTDVLYTICNPCGPVQRIVIFRKNGVQAMVEFDSVQSAQRAKASLNGADIYSGCCTLKIEYAKPTRLNVFKNDQDTWDYTNPNLSGQGDPGSNPNKRQRQPPLLGDHPAEYGGPHGGYHSHYHDEGYGPPPPHYEGRRMGPPVGGHRRGPSRYGPQYGHPPPPPPPPEYGPHADSPVLMVYGLDQSKMNCDRVFNVFCLYGNVEKVKFMKSKPGAAMVEMADGYAVDRAITHLNNNFMFGQKLNVCVSKQPAIMPGQSYGLEDGSCSYKDFSESRNNRFSTPEQAAKNRIQHPSNVLHFFNAPLEVTEENFFEICDELGVKRPSSVKVFSGKSERSSSGLLEWESKSDALETLGFLNHYQMKNPNGPYPYTLKLCFSTAQHAS

binding [3]: no binding
B2: hnRNP LL (endogenous) (protein, UniProt Q8WVV9 1-542)
chain: MSSSSSSPRETYEEDREYESQAKRLKTEEGEIDYSAEEGENRREATPRGGGDGGGGGRSFSQPEAGGSHHKVSVSPVVHVRGLCESVVEADLVEALEKFGTICYVMMMPFKRQALVEFENIDSAKECVTFAADEPVYIAGQQAFFNYSTSKRITRPGNTDDPSGGNKVLLLSIQNPLYPITVDVLYTVCNPVGKVQRIVIFKRNGIQAMVEFESVLCAQKAKAALNGADIYAGCCTLKIEYARPTRLNVIRNDNDSWDYTKPYLGRRDRGKGRQRQAILGEHPSSFRHDGYGSHGPLLPLPSRYRMGSRDTPELVAYPLPQASSSYMHGGNPSGSVVMVSGLHQLKMNCSRVFNLFCLYGNIEKVKFMKTIPGTALVEMGDEYAVERAVTHLNNVKLFGKRLNVCVSKQHSVVPSQIFELEDGTSSYKDFAMSKNNRFTSAGQASKNIIQPPSCVLHYYNVPLCVTEETFTKLCNDHEVLTFIKYKVFDAKPSAKTLSGLLEWECKTDAVEALTALNHYQIRVPNGSNPYTLKLCFSTSSHL
